No constants are given. Whether binding was seen depends on the method and setting. For some of these results: Binding seen in cells or lysates may run through a third protein. Some binding calls cover weakened binding; strength is not graded here. For some of these results: Sequences can lack the tags named with a protein.
T1: GFP-MDA5 (UniProt Q9BYX4)
T1 sequence: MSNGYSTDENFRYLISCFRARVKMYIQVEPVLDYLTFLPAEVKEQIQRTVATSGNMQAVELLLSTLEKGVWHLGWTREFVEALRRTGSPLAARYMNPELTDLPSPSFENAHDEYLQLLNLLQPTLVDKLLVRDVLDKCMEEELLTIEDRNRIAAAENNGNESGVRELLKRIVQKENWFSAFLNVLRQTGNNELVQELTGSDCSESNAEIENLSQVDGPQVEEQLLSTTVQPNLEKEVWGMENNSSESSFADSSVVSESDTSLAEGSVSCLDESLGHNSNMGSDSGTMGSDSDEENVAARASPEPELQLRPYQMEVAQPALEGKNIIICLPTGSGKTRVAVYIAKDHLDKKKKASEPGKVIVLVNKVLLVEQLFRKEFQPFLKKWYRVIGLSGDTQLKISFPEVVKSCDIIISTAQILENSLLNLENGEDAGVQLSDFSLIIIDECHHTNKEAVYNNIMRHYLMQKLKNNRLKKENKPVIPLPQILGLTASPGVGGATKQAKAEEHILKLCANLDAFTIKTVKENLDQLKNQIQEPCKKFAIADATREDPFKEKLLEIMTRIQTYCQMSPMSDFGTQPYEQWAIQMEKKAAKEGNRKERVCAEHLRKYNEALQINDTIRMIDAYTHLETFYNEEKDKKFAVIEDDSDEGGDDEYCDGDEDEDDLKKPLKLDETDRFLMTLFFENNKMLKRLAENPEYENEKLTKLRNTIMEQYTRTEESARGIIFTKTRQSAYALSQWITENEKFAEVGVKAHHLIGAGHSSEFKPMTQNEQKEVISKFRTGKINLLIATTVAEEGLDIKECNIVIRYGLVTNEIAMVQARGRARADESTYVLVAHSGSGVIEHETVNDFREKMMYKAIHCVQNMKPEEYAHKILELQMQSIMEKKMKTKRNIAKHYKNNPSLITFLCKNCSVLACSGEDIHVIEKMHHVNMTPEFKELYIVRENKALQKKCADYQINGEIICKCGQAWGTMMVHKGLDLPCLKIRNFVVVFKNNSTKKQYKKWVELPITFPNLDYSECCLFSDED

T2: GST-MDA5 (purified from E. coli) (UniProt Q9BYX4)
T2 sequence: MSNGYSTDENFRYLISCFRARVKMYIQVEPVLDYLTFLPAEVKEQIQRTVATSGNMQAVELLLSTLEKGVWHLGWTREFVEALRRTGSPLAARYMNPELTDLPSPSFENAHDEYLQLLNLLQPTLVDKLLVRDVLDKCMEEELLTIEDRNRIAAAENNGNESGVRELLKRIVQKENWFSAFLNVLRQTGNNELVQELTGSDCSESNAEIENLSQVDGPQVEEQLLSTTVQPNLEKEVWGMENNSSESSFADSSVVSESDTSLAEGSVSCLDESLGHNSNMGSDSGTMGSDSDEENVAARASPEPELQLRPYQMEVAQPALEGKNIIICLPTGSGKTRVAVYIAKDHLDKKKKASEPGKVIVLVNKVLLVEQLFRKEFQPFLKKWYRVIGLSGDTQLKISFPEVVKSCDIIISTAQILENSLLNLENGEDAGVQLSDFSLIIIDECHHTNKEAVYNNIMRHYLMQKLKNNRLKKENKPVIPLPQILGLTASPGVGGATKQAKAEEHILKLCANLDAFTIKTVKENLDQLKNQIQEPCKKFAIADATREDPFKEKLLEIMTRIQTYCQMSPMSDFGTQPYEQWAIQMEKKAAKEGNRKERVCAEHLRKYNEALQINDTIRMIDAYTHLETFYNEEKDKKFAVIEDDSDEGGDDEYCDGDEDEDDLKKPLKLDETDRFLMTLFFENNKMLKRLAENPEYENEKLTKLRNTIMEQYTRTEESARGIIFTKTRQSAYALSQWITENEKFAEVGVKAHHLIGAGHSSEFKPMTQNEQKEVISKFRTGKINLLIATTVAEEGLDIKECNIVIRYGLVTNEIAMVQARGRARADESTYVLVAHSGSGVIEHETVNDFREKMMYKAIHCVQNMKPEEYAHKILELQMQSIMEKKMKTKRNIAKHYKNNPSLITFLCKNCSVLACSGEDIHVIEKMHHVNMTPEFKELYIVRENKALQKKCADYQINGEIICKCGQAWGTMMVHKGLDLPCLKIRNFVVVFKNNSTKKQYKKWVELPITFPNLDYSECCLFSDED

T3: HA-TRIM4 (UniProt Q9C037)
T3 sequence: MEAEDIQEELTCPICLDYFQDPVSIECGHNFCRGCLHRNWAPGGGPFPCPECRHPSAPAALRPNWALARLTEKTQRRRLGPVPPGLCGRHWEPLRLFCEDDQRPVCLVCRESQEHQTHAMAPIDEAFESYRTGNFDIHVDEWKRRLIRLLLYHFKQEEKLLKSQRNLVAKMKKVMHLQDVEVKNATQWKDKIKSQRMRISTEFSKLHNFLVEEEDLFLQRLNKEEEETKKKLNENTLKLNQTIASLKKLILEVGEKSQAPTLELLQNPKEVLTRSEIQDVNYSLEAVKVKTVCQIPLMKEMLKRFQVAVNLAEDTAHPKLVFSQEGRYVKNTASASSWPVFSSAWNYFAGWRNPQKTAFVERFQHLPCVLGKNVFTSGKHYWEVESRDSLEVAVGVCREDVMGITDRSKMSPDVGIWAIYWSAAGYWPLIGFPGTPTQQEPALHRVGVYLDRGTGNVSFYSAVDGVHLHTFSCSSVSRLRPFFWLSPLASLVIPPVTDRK


Experiments:
GFP-MDA5 = target: T1, GFP-MDA5; assay: co-IP
[1] = target: GFP-nsp8 (SARS-CoV-2 nonstructural protein 8) (SARS-CoV-2) (UniProt P0DTD1); assay: co-IP
[2] = target: nsp8 expressed from the Spike-deleted SARS-CoV-2 replicon (SARS-CoV-2) (UniProt P0DTD1); assay: co-IP
[3] = target: T2, GST-MDA5 (purified from E. coli); assay: pull-down; both purified
HA-TRIM4 = target: T3, HA-TRIM4; assay: co-IP

Row | Binder | binding [1] | binding [2] | further results
1 | HA-TRIM4 (enzyme, UniProt Q9C037 1-500) MEAEDIQEELTCPICLDYFQDPVSIECGHNFCRGCLHRNWAPGGGPFPCPECRHPSAPAALRPNWALARLTEKTQRRRLGPVPPGLCGRHWEPLRLFCEDDQRPVCLVCRESQEHQTHAMAPIDEAFESYRTGNFDIHVDEWKRRLIRLLLYHFKQEEKLLKSQRNLVAKMKKVMHLQDVEVKNATQWKDKIKSQRMRISTEFSKLHNFLVEEEDLFLQRLNKEEEETKKKLNENTLKLNQTIASLKKLILEVGEKSQAPTLELLQNPKEVLTRSEIQDVNYSLEAVKVKTVCQIPLMKEMLKRFQVAVNLAEDTAHPKLVFSQEGRYVKNTASASSWPVFSSAWNYFAGWRNPQKTAFVERFQHLPCVLGKNVFTSGKHYWEVESRDSLEVAVGVCREDVMGITDRSKMSPDVGIWAIYWSAAGYWPLIGFPGTPTQQEPALHRVGVYLDRGTGNVSFYSAVDGVHLHTFSCSSVSRLRPFFWLSPLASLVIPPVTDRK | – | – | binding (GFP-MDA5): binds
2 | endogenous TRIM4 (enzyme, UniProt Q9C037 1-500) MEAEDIQEELTCPICLDYFQDPVSIECGHNFCRGCLHRNWAPGGGPFPCPECRHPSAPAALRPNWALARLTEKTQRRRLGPVPPGLCGRHWEPLRLFCEDDQRPVCLVCRESQEHQTHAMAPIDEAFESYRTGNFDIHVDEWKRRLIRLLLYHFKQEEKLLKSQRNLVAKMKKVMHLQDVEVKNATQWKDKIKSQRMRISTEFSKLHNFLVEEEDLFLQRLNKEEEETKKKLNENTLKLNQTIASLKKLILEVGEKSQAPTLELLQNPKEVLTRSEIQDVNYSLEAVKVKTVCQIPLMKEMLKRFQVAVNLAEDTAHPKLVFSQEGRYVKNTASASSWPVFSSAWNYFAGWRNPQKTAFVERFQHLPCVLGKNVFTSGKHYWEVESRDSLEVAVGVCREDVMGITDRSKMSPDVGIWAIYWSAAGYWPLIGFPGTPTQQEPALHRVGVYLDRGTGNVSFYSAVDGVHLHTFSCSSVSRLRPFFWLSPLASLVIPPVTDRK | binds | binds | –
3 | His-TRIM4 (purified from E. coli) (enzyme, UniProt Q9C037 1-500) MEAEDIQEELTCPICLDYFQDPVSIECGHNFCRGCLHRNWAPGGGPFPCPECRHPSAPAALRPNWALARLTEKTQRRRLGPVPPGLCGRHWEPLRLFCEDDQRPVCLVCRESQEHQTHAMAPIDEAFESYRTGNFDIHVDEWKRRLIRLLLYHFKQEEKLLKSQRNLVAKMKKVMHLQDVEVKNATQWKDKIKSQRMRISTEFSKLHNFLVEEEDLFLQRLNKEEEETKKKLNENTLKLNQTIASLKKLILEVGEKSQAPTLELLQNPKEVLTRSEIQDVNYSLEAVKVKTVCQIPLMKEMLKRFQVAVNLAEDTAHPKLVFSQEGRYVKNTASASSWPVFSSAWNYFAGWRNPQKTAFVERFQHLPCVLGKNVFTSGKHYWEVESRDSLEVAVGVCREDVMGITDRSKMSPDVGIWAIYWSAAGYWPLIGFPGTPTQQEPALHRVGVYLDRGTGNVSFYSAVDGVHLHTFSCSSVSRLRPFFWLSPLASLVIPPVTDRK | – | – | binding [3]: binds
4 | endogenous MDA5 (protein, UniProt Q9BYX4 1-1025) MSNGYSTDENFRYLISCFRARVKMYIQVEPVLDYLTFLPAEVKEQIQRTVATSGNMQAVELLLSTLEKGVWHLGWTREFVEALRRTGSPLAARYMNPELTDLPSPSFENAHDEYLQLLNLLQPTLVDKLLVRDVLDKCMEEELLTIEDRNRIAAAENNGNESGVRELLKRIVQKENWFSAFLNVLRQTGNNELVQELTGSDCSESNAEIENLSQVDGPQVEEQLLSTTVQPNLEKEVWGMENNSSESSFADSSVVSESDTSLAEGSVSCLDESLGHNSNMGSDSGTMGSDSDEENVAARASPEPELQLRPYQMEVAQPALEGKNIIICLPTGSGKTRVAVYIAKDHLDKKKKASEPGKVIVLVNKVLLVEQLFRKEFQPFLKKWYRVIGLSGDTQLKISFPEVVKSCDIIISTAQILENSLLNLENGEDAGVQLSDFSLIIIDECHHTNKEAVYNNIMRHYLMQKLKNNRLKKENKPVIPLPQILGLTASPGVGGATKQAKAEEHILKLCANLDAFTIKTVKENLDQLKNQIQEPCKKFAIADATREDPFKEKLLEIMTRIQTYCQMSPMSDFGTQPYEQWAIQMEKKAAKEGNRKERVCAEHLRKYNEALQINDTIRMIDAYTHLETFYNEEKDKKFAVIEDDSDEGGDDEYCDGDEDEDDLKKPLKLDETDRFLMTLFFENNKMLKRLAENPEYENEKLTKLRNTIMEQYTRTEESARGIIFTKTRQSAYALSQWITENEKFAEVGVKAHHLIGAGHSSEFKPMTQNEQKEVISKFRTGKINLLIATTVAEEGLDIKECNIVIRYGLVTNEIAMVQARGRARADESTYVLVAHSGSGVIEHETVNDFREKMMYKAIHCVQNMKPEEYAHKILELQMQSIMEKKMKTKRNIAKHYKNNPSLITFLCKNCSVLACSGEDIHVIEKMHHVNMTPEFKELYIVRENKALQKKCADYQINGEIICKCGQAWGTMMVHKGLDLPCLKIRNFVVVFKNNSTKKQYKKWVELPITFPNLDYSECCLFSDED | binds | binds | –
5 | GFP-MDA5 (protein, UniProt Q9BYX4 1-1025) MSNGYSTDENFRYLISCFRARVKMYIQVEPVLDYLTFLPAEVKEQIQRTVATSGNMQAVELLLSTLEKGVWHLGWTREFVEALRRTGSPLAARYMNPELTDLPSPSFENAHDEYLQLLNLLQPTLVDKLLVRDVLDKCMEEELLTIEDRNRIAAAENNGNESGVRELLKRIVQKENWFSAFLNVLRQTGNNELVQELTGSDCSESNAEIENLSQVDGPQVEEQLLSTTVQPNLEKEVWGMENNSSESSFADSSVVSESDTSLAEGSVSCLDESLGHNSNMGSDSGTMGSDSDEENVAARASPEPELQLRPYQMEVAQPALEGKNIIICLPTGSGKTRVAVYIAKDHLDKKKKASEPGKVIVLVNKVLLVEQLFRKEFQPFLKKWYRVIGLSGDTQLKISFPEVVKSCDIIISTAQILENSLLNLENGEDAGVQLSDFSLIIIDECHHTNKEAVYNNIMRHYLMQKLKNNRLKKENKPVIPLPQILGLTASPGVGGATKQAKAEEHILKLCANLDAFTIKTVKENLDQLKNQIQEPCKKFAIADATREDPFKEKLLEIMTRIQTYCQMSPMSDFGTQPYEQWAIQMEKKAAKEGNRKERVCAEHLRKYNEALQINDTIRMIDAYTHLETFYNEEKDKKFAVIEDDSDEGGDDEYCDGDEDEDDLKKPLKLDETDRFLMTLFFENNKMLKRLAENPEYENEKLTKLRNTIMEQYTRTEESARGIIFTKTRQSAYALSQWITENEKFAEVGVKAHHLIGAGHSSEFKPMTQNEQKEVISKFRTGKINLLIATTVAEEGLDIKECNIVIRYGLVTNEIAMVQARGRARADESTYVLVAHSGSGVIEHETVNDFREKMMYKAIHCVQNMKPEEYAHKILELQMQSIMEKKMKTKRNIAKHYKNNPSLITFLCKNCSVLACSGEDIHVIEKMHHVNMTPEFKELYIVRENKALQKKCADYQINGEIICKCGQAWGTMMVHKGLDLPCLKIRNFVVVFKNNSTKKQYKKWVELPITFPNLDYSECCLFSDED | – | – | binding (HA-TRIM4): binds
